From the supplement of paper PMC12595434, “Development of retinoid nuclear receptor pathway antagonists through targeting aldehyde dehydrogenase 1A3” (iScience, 2025)
The list shows a part of the results. Single values of this set are uncertain.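 Tm was set to 64 °C where no melting was found, and many curves are irregular.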

Chains of the proteins cited; added tags and fusions are not shown. Lines headed by an entry give the natural chain unless they say otherwise; changes in a name come on top.
UniProt Q9NVI1: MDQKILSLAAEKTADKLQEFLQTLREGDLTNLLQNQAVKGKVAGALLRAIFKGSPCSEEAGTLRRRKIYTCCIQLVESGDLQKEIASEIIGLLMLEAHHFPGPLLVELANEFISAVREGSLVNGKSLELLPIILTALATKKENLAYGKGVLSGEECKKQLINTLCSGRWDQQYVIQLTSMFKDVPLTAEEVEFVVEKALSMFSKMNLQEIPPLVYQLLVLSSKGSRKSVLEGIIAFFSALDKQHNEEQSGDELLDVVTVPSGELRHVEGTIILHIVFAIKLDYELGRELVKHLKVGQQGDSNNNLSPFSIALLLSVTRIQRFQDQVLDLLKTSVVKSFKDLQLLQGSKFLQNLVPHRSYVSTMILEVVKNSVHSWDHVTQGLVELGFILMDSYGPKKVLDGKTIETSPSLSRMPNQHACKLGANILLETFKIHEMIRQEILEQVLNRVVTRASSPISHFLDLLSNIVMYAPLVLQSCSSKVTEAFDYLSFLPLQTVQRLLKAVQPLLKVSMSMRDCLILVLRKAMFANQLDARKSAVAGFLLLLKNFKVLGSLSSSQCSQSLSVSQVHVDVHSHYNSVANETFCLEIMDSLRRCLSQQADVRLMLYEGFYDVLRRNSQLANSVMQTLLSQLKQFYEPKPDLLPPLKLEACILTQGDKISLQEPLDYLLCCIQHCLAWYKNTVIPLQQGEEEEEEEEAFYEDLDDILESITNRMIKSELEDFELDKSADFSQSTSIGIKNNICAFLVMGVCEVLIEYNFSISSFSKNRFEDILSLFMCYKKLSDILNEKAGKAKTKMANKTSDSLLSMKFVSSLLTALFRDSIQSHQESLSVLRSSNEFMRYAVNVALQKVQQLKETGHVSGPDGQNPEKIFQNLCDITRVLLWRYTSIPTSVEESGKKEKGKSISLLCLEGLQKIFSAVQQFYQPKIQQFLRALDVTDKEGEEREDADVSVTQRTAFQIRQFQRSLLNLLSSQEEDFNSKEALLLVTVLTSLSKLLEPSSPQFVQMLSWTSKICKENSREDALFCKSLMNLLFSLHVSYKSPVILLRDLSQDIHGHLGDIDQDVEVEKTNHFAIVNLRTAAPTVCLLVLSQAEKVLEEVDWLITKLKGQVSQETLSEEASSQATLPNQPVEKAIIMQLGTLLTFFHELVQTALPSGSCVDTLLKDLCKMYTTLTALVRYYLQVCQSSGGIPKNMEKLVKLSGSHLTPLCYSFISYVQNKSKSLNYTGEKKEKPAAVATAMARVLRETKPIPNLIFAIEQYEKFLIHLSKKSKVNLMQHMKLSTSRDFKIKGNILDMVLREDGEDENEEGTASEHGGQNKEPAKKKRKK
UniProt Q9NXE4: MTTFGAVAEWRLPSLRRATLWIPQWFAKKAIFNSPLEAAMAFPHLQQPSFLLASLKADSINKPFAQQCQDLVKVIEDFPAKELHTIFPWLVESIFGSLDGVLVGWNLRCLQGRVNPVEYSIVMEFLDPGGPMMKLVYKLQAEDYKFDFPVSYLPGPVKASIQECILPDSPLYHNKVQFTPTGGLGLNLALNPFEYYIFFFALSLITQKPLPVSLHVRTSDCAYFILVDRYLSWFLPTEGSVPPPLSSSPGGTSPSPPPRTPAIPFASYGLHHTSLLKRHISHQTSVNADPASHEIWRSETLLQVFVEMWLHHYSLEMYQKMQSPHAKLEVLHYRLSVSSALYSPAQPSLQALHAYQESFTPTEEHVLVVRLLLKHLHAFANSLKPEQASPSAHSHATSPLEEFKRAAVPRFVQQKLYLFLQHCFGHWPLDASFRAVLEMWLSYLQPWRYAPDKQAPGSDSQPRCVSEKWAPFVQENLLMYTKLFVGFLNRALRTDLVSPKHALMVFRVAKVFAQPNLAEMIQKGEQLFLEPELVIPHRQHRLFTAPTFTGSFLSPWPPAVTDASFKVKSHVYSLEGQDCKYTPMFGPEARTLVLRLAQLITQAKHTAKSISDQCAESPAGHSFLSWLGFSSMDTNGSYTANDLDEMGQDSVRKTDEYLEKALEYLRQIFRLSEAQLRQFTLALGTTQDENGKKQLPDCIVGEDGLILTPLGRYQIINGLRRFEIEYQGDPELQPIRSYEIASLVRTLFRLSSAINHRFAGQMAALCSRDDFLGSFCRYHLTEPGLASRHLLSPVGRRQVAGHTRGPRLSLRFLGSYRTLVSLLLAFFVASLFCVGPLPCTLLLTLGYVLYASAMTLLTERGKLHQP
UniProt Q9P265: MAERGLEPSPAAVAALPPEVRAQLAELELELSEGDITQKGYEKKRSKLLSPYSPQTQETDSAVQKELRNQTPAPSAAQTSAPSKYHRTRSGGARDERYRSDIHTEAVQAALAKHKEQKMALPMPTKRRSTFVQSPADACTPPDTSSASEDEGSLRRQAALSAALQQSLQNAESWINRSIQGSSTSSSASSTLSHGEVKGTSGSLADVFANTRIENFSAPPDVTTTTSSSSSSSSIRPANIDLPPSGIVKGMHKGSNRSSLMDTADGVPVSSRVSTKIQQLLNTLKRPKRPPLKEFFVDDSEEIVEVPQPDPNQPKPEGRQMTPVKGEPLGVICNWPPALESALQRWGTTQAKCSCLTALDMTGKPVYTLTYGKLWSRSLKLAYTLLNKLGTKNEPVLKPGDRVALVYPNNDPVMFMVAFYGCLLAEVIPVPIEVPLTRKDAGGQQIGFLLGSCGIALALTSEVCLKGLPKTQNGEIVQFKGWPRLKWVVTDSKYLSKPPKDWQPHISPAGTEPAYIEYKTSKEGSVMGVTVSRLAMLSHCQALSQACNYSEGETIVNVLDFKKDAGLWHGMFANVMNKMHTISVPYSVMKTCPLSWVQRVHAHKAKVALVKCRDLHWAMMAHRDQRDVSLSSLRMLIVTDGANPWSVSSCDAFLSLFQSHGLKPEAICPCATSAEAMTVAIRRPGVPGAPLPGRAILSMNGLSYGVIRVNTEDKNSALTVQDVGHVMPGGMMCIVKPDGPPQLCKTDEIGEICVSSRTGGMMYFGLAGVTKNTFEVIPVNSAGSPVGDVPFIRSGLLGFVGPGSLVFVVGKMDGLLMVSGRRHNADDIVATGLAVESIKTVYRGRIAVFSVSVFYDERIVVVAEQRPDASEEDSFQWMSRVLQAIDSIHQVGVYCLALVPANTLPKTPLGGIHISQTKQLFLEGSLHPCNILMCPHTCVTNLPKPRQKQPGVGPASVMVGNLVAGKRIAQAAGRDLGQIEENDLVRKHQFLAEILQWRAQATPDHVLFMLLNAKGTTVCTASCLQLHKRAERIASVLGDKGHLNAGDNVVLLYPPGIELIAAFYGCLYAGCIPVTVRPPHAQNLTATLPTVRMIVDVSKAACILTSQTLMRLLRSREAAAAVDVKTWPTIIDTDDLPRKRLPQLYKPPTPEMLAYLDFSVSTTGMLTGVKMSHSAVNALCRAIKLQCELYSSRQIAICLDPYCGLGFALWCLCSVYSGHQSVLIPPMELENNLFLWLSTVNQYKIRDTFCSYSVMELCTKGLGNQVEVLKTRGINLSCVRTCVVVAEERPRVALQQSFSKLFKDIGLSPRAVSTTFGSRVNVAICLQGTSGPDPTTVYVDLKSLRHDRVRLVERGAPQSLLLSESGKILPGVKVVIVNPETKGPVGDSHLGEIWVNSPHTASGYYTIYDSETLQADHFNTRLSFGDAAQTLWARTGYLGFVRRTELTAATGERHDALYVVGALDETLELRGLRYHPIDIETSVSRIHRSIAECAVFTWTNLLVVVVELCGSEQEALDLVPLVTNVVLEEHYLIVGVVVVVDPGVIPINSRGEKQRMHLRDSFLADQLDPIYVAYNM
UniProt Q9UBS4: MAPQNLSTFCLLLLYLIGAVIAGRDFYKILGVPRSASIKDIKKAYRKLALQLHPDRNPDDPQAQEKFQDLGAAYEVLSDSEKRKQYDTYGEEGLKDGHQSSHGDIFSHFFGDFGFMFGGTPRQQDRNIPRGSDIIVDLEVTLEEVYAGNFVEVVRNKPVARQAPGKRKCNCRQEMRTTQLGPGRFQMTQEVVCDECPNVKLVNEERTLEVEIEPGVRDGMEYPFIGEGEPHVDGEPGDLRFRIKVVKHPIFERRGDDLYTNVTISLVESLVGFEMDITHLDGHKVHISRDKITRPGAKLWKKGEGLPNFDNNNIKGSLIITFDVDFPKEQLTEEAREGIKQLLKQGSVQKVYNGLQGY
UniProt Q9NZU0: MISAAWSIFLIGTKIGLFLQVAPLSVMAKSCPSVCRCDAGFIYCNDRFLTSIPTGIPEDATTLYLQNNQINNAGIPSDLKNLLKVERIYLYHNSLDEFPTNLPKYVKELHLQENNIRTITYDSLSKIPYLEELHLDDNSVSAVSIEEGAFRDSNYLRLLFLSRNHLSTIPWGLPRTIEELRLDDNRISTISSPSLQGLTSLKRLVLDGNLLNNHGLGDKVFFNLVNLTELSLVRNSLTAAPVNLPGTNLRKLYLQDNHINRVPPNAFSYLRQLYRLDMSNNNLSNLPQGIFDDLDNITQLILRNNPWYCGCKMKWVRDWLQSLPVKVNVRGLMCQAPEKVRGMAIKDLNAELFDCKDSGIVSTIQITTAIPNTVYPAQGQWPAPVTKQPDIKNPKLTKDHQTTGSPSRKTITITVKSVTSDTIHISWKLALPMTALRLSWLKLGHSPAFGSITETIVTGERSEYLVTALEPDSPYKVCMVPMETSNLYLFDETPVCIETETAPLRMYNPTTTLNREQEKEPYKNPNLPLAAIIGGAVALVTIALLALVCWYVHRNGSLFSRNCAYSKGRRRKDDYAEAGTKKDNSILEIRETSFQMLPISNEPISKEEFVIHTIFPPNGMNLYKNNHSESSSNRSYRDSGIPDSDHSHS
UniProt Q9NZC3: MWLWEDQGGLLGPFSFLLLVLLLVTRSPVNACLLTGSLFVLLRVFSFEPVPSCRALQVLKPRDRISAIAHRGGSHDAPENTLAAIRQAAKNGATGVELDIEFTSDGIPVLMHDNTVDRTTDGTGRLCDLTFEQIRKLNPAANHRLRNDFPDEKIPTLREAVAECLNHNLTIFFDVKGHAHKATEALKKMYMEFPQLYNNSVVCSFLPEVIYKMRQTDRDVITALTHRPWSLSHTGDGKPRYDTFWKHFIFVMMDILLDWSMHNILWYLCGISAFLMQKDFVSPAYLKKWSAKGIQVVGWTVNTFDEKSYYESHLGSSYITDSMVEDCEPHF
UniProt Q9UBI6: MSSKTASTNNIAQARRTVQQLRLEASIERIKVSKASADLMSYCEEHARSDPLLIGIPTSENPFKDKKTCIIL
UniProt Q9P2W9: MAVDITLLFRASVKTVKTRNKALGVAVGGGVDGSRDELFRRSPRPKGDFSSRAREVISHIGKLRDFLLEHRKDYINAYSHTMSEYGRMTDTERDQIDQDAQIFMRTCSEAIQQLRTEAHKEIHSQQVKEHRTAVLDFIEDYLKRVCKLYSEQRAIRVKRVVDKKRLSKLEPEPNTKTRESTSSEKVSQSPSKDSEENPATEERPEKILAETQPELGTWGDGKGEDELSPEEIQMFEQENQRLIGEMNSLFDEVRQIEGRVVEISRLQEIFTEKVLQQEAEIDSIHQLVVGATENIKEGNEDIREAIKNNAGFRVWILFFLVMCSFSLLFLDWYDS
UniProt Q9NXR1: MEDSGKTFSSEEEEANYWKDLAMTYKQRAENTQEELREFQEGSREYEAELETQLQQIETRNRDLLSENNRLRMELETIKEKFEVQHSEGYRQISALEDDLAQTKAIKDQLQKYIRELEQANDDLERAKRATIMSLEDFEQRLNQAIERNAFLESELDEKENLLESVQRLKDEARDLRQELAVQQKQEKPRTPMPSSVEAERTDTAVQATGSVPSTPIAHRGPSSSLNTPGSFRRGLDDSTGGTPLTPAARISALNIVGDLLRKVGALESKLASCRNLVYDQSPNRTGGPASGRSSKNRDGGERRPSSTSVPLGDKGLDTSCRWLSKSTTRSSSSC
UniProt Q9NXA8: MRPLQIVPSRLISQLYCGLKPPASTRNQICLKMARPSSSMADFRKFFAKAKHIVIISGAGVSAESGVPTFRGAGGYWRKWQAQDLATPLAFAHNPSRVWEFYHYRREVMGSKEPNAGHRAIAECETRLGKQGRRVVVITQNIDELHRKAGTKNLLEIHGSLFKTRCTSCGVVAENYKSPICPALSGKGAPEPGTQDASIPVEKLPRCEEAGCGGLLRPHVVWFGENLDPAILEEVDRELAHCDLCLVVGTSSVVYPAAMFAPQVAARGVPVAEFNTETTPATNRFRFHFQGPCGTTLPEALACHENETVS
UniProt Q9P0S2: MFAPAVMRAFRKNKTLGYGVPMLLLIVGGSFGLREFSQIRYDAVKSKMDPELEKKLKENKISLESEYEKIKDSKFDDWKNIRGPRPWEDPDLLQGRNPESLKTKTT
UniProt Q9NWX6: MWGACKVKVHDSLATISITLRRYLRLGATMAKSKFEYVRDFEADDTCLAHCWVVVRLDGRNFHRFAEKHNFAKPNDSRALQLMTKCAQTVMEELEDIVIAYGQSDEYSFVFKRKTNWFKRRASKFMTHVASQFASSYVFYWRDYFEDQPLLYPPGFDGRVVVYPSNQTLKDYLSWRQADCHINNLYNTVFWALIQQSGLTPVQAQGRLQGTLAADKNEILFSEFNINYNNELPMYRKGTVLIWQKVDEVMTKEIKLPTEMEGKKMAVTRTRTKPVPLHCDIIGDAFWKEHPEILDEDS

Compound: CCc1cnccc1C(=O)Nc1cc2c(cc1F)NC(=O)CC2
Assay: melting temperature shift (DMSO Tm minus MBE1-treated Tm) in cellular thermal proteome profiling; higher = less thermal stabilization by MBE1 (negative = stabilized by MBE1)
Conditions: A375

Target	melting temperature shift (MBE1 concentration: 100 nM) [°C]	melting temperature shift (MBE1 concentration: 1 uM) [°C]
FANCI (UniProt Q9NVI1)	-0.372	-0.128
BCLAF1 (UniProt Q9NYF8)	-0.702	-0.379
DPP3 (UniProt Q9NY33)	-0.49	0.651
UniProt Q9P1U1	-2.82	0.125
IMPACT (UniProt Q9P2X3)	-0.874	-0.785
UniProt Q9NY65	1.21	3.21
SMPD4 (UniProt Q9NXE4)	1.92	0.824
ACTR10 (UniProt Q9NZ32)	-1.55	-1.26
EXTL2 (UniProt Q9UBQ6)	-0.52	-2.48
POLR3B (UniProt Q9NW08)	-1.2	-0.454
RAB20 (UniProt Q9NX57)	1.05	1.15
ARMC1 (UniProt Q9NVT9)	-0.543	0.861
ANO10 (UniProt Q9NW15)	-0.489	0.513
UniProt Q9P1Q0	-4.75	-0.33
TMEM160 (UniProt Q9NX00)	-1.5	-3.54
COQ3 (UniProt Q9NZJ6)	-2.53	1.73
GPATCH2 (UniProt Q9NW75)	-4.05	0.262
DIP2B (UniProt Q9P265)	-0.349	-0.409
DNAJB11 (UniProt Q9UBS4)	-1.88	-0.409
RCOR3 (UniProt Q9P2K3)	-0.541	-0.807

Target	melting temperature shift (MBE1 concentration: 100 nM) [°C]	melting temperature shift (MBE1 concentration: 1 uM) [°C]
CTSZ (UniProt Q9UBR2)	-0.366	-0.0427
UniProt Q9UDR5	0.721	0.714
UniProt Q9NZU0	-0.742	0.0611
EPS15L1 (UniProt Q9UBC2)	0.58	0.366
USE1 (UniProt Q9NZ43)	0.22	-1.18
SAE1 (UniProt Q9UBE0)	-0.00671	0.153
GDE1 (UniProt Q9NZC3)	-3.64	-2.45
MBD2 (UniProt Q9UBB5)	-0.829	0.588
LRWD1 (UniProt Q9UFC0)	-0.365	-0.487
FASTKD2 (UniProt Q9NYY8)	1.15	0.672
UniProt Q9P2L0	-0.536	-0.447
GDAP2 (UniProt Q9NXN4)	-0.378	-0.741
GNG12 (UniProt Q9UBI6)	-0.464	-0.696
UniProt Q9UBN7	1.31	0.879
DNAJB4 (UniProt Q9UDY4)	-1.06	-0.0672
CISD1 (UniProt Q9NZ45)	-1.97	-3.5
OXSM (UniProt Q9NWU1)	-1.47	-3.35
HACD3 (UniProt Q9P035)	-0.828	0.241
STX18 (UniProt Q9P2W9)	0.476	-0.256
UVRAG (UniProt Q9P2Y5)	-0.43	0.263

2 entries picked at random from those above, as already listed:
Target	melting temperature shift (MBE1 concentration: 100 nM) [°C]	melting temperature shift (MBE1 concentration: 1 uM) [°C]
HACD3 (UniProt Q9P035)	-0.828	0.241
UniProt Q9P2L0	-0.536	-0.447

(listing goes on)

Target	melting temperature shift (MBE1 concentration: 100 nM) [°C]	melting temperature shift (MBE1 concentration: 1 uM) [°C]
VTI1B (UniProt Q9UEU0)	-3.41	-3.5
UniProt Q9NZI7	-0.973	-0.589
RRBP1 (UniProt Q9P2E9)	-1.24	0.452
MTMR10 (UniProt Q9NXD2)	0.568	-0.44
CCDC59 (UniProt Q9P031)	-1.48	0.891
PPP4R2 (UniProt Q9NY27)	-0.311	0.318
UniProt Q9P2G1	-0.999	-0.348
NDE1 (UniProt Q9NXR1)	-1.97	-0.321
UniProt Q9P2J3	0.358	0.0333
UniProt Q9P0J0	-0.171	-0.294
SIRT5 (UniProt Q9NXA8)	1.31	-0.293
UniProt Q9P0S2	-2.23	-3.75
THG1L (UniProt Q9NWX6)	-1.68	11.5
COMMD3 (UniProt Q9UBI1)	1.25	0.275
ZNHIT6 (UniProt Q9NWK9)	-0.269	-0.532
UniProt Q9UDX5	-3.28	-3.76
MRPL15 (UniProt Q9P015)	1.2	0.788
CALCOCO1 (UniProt Q9P1Z2)	0.837	-0.421
DTL (UniProt Q9NZJ0)	0.656	-0.353
STIM2 (UniProt Q9P246)	-0.753	-0.212
